Results published in ChEMBL document CHEMBL1147364, “An antifungal bibenzyl from the New Zealand liverwort, Plagiochila stephensoniana. Bioactivity-directed isolation, synthesis, and analysis” (J Nat Prod, 1993).

Test system: Candida albicans
Assay: Antifungal activity against Candida albicans 10261 at 100 units/disk by disk diffusion assay
Format: functional, organism-based

For NYSTATIN, the inhibition zone (IZ) was 10 mm.
